These are yes or no findings as the source states them, for the method shown. Some entries that bind do so weakly or less than the wild type.
Target: α1 proteinase inhibitor (API), human plasma (human) (UniProt P01009)
Assay: on-bead 6-mer library screen with plasma, 14C-labeled or purified API; anti-API detection after transfer to membrane

Protein sequences, listed by entry. Tags and fused reporters are not part of them. Residues count along the entry.
UniProt P01009, residues 25-418: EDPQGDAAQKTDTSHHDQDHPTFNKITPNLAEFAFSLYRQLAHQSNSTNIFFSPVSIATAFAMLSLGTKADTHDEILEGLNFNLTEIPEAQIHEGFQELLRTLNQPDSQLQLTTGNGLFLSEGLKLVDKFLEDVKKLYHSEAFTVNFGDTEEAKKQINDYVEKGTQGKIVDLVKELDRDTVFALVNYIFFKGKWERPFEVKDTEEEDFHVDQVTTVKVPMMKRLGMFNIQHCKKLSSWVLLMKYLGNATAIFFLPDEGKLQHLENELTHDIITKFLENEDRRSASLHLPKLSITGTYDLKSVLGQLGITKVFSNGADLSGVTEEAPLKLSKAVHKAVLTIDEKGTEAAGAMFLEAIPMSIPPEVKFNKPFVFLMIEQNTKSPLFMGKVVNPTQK

- binding: binds
Binder: HFDLHR (C-terminus attached to library resin bead) [HFDLHR (SEQ ID NO: 47) peptide on library resin bead]

— patent publication US20030212253A1 (AMERICAN NATIONAL RED CROSS, published 2003)
